According to publication doi:10.1101/2023.06.19.545549:
No constants are given. Whether binding was seen depends on the method and setting. For part of these data: In cells and extracts the contact can be indirect. Some binding calls cover weakened binding; strength is not graded here.

Protein sequences, listed by entry. Tags and fused reporters are not part of them.
UniProt P95334: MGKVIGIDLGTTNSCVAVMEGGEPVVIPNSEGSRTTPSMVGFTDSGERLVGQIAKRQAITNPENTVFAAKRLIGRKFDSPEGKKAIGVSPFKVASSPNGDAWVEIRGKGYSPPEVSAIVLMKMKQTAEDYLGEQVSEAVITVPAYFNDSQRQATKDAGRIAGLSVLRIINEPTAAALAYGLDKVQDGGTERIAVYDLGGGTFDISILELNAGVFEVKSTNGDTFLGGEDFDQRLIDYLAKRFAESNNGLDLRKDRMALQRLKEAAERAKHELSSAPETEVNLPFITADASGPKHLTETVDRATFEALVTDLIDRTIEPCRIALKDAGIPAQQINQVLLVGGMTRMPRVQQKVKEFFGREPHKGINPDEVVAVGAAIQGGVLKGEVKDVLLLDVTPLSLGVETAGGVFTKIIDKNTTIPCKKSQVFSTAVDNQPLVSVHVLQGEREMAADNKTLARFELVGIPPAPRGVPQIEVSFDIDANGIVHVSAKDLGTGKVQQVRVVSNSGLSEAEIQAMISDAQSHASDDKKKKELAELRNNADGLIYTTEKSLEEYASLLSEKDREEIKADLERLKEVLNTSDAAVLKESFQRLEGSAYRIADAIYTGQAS

Assays:
[1] = molecular target: His6-MxDnaK2, purified recombinant (Myxococcus xanthus DK1622) (UniProt P95334); assay: SDS-PAGE of the purified protein
[2] = molecular target: MxDnaK2-nLuc (MxDnaK2-LgBiT and MxDnaK2-SmBiT) (Myxococcus xanthus DK1622) (UniProt P95334); assay: split reporter
[3] = molecular target: His6-MxDnaK2, purified recombinant (Myxococcus xanthus DK1622) (UniProt P95334); assay: SDS-PAGE bands of the Ni-NTA purified protein, identified

For “His6-MxDnaK2, purified recombinant (from UniProt P95334 1-607)”, the binding [1] was “no binding (condition: with 100 mM DTT)”.

In the case of “MxDnaK2-nLuc (MxDnaK2-LgBiT and MxDnaK2-SmBiT) (from UniProt P95334 1-607)”, the binding [2] is reported as “binds”.

B1: anti-FlhDC factor (WP_001300634.1, 27 kDa) (protein, UniProt P76204 1-237)
chain: MKIFLENLYHSDCYFLPIRDNQQVLVGVELITHFSSEDGTVRIPTSRVIAQLTEEQHWQLFSEQLELLKSCQHFFIQHKLFAWLNLTPQVATLLLERDNYAGELLKYPFIELLINENYPHLNEGKDNRGLLSLSQVYPLVLGNLGAGNSTMKAVFDGLFTRVMLDKSFIQQQITHRSFEPFIRAIQAQISPCCNCIIAGGIDTAEILAQITPFDFHALQGCLWPAVPINQITTLVQR
For B1, the binding [3] was “binds”.
